Measurements reported in PubChem BioAssay AID1224830 (NIAID, 2016)
Aim: 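Host factors that control LPS-induced TNF expression in human macrophages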 (primary screen). System: human THP-1 monocytic leukaemia cells, TNF dual-luciferase reporter clone, PMA-differentiated to macrophage-like cells. Reagent: siRNA pool against human genes, 50 nM. Duration: LPS for 4 h, given about 3 days after siRNA transfection. Treatment: bacterial LPS (TLR4 ligand), 10 ng/ml. Measured: 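TNF firefly reporter luminescence divided by renilla, normalised to the plate median, then turned into a robust z-score for each replicate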. Direction: TNF reporter robust z-score: higher = stronger TNF reporter response to LPS. Rule for the call: 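a well is active when its z-score exceeds 2.8 or falls below -1.5; control wells carry no call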.
Shown is an unselected part of about 18,000 deposited reagents. About 2,900 of all reagents (16%) count as active. 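Calls are made per well; low scores hint the gene aids the LPS response, high scores that it dampens it.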 Repeated entries: four replicate wells of each siRNA pool.

Depletion of TSPAN16 [SID315455808] gave: TNF reporter robust z-score -0.34; inactive.
Knock-down of TSPAN16 [SID315455808] came out at: TNF reporter robust z-score 0.76; inactive.
Depletion of TSPAN16 [SID315455808] came out at: TNF reporter robust z-score 0.52; inactive.
With knock-down of TSPAN16 [SID315455808], the record shows TNF reporter robust z-score 0.29; inactive.
PPT1 [SID315450771] scored TNF reporter robust z-score 1.33; inactive.
After knock-down of PPT1 [SID315450771], the record shows TNF reporter robust z-score 1.06; inactive.
After knock-down of PPT1 [SID315450771], the record shows TNF reporter robust z-score 1.72; inactive.
After knock-down of PPT1 [SID315450771], the record shows TNF reporter robust z-score 1.38; inactive.
After knock-down of RTP2 [SID315464181], the screen gave TNF reporter robust z-score -0.08; inactive.
Silencing of RTP2 [SID315464181] resulted in: TNF reporter robust z-score -0.14; inactive.
RTP2 [SID315464181] gave TNF reporter robust z-score -0.36; inactive.
Against RTP2 [SID315464181], the values are TNF reporter robust z-score 0.2; inactive.
Depletion of SCN11A [SID315454740] came out at: TNF reporter robust z-score -0.82; inactive.
Knock-down of SCN11A [SID315454740] resulted in: TNF reporter robust z-score -0.63; inactive.
SCN11A [SID315454740] showed TNF reporter robust z-score 0.86; inactive.
SCN11A [SID315454740] showed TNF reporter robust z-score 1.56; inactive.
Knock-down of RPL26 [SID315451191] gave: TNF reporter robust z-score 1.1; inactive.
After knock-down of RPL26 [SID315451191], the screen gave TNF reporter robust z-score 1.38; inactive.
For RPL26 [SID315451191], the values are TNF reporter robust z-score 1.98; inactive.
RPL26 [SID315451191] gave TNF reporter robust z-score 1.3; inactive.
For MCMDC2 [SID315462635], the values are TNF reporter robust z-score 0.06; inactive.
MCMDC2 [SID315462635] scored TNF reporter robust z-score 2.96; active.
With knock-down of MCMDC2 [SID315462635], the screen gave TNF reporter robust z-score -0.37; inactive.
Against MCMDC2 [SID315462635], the values are TNF reporter robust z-score 0.74; inactive.

The listing continues:
For LCP1 [SID315449742], the entry reads TNF reporter robust z-score 0.21; inactive.
For LCP1 [SID315449742] the deposit lists TNF reporter robust z-score 2.17; inactive.
Silencing of LCP1 [SID315449742] gave: TNF reporter robust z-score 3.22; active.
Silencing of LCP1 [SID315449742] came out at: TNF reporter robust z-score 2.62; inactive.
KIF6 [SID315463297] gave TNF reporter robust z-score -0.82; inactive.
Silencing of KIF6 [SID315463297] came out at: TNF reporter robust z-score -0.94; inactive.
KIF6 [SID315463297] scored TNF reporter robust z-score -0.84; inactive.
For KIF6 [SID315463297] the deposit lists TNF reporter robust z-score -0.58; inactive.
Knock-down of OR2K2 [SID315455733] came out at: TNF reporter robust z-score 1.62; inactive.
Against OR2K2 [SID315455733], the entry reads TNF reporter robust z-score 4.65; active.
After knock-down of OR2K2 [SID315455733], the screen gave TNF reporter robust z-score 3.49; active.
Against OR2K2 [SID315455733], the entry reads TNF reporter robust z-score 1.61; inactive.
For CDR2L [SID315456307] the deposit lists TNF reporter robust z-score 0.79; inactive.
CDR2L [SID315456307] showed TNF reporter robust z-score 1.33; inactive.
CDR2L [SID315456307] scored TNF reporter robust z-score 0.23; inactive.
After knock-down of CDR2L [SID315456307], the record shows TNF reporter robust z-score 2.06; inactive.
For NPM1 [SID315450293] the deposit lists TNF reporter robust z-score -1.02; inactive.
Silencing of NPM1 [SID315450293] came out at: TNF reporter robust z-score -0.25; inactive.
Knock-down of NPM1 [SID315450293] came out at: TNF reporter robust z-score -0.57; inactive.
Against NPM1 [SID315450293] the deposit lists TNF reporter robust z-score -0.61; inactive.
Depletion of P4HA1 [SID315450400] resulted in: TNF reporter robust z-score -1.05; inactive.
Silencing of P4HA1 [SID315450400] gave: TNF reporter robust z-score 0.99; inactive.
With knock-down of P4HA1 [SID315450400], the screen gave TNF reporter robust z-score 0.34; inactive.
Knock-down of P4HA1 [SID315450400] resulted in: TNF reporter robust z-score 1.11; inactive.
